These results are taken from PMC3859580.

The exact form of at least one protein or probe is not confirmed. The comparison behind a weaker result is the experiment's own reference, which may not be listed here.

The test system of this data set is Mcm2-7(3K499A) complex (Saccharomyces cerevisiae). As to the kind of experiment: EMSA. Conditions: 5 mM ATP, 10 mM Mg acetate, 50-400 nM complex, 1 nM DNA, complex reduced vs wild type, EMSA: 20 mM Tris-HCl pH 7.5, 10 mM Mg acetate, 100 uM EDTA, 5 mM DTT, 37 C, 10 min, 5% native TBE gel with 5% glycerol, 0.1% NP-40, 10 mM Mg acetate, recombinant protein, label: 5'-32P, single-stranded DNA.

With “ATGTCCTAGCAAGCCAGAATTCGGCAGCGTCTTTTTTTTTTTTTTTTTTTTTTTTTTTTTTTTTTTTTTTTTTTTTTTTTTTTTTTTTTTT [90-base ssDNA oligonucleotide with (T)60 tail]”, the binding result is on record as “binds more weakly”.
